Test results published in publication PMC4307741.
No constants are given. Whether binding was seen depends on the method and setting. In cells and extracts the contact can be indirect. Some entries that bind do so weakly or less than the wild type.

Chains of the proteins cited; added tags and fusions are not shown. Residues count along the entry.
UniProt Q9Y2J2: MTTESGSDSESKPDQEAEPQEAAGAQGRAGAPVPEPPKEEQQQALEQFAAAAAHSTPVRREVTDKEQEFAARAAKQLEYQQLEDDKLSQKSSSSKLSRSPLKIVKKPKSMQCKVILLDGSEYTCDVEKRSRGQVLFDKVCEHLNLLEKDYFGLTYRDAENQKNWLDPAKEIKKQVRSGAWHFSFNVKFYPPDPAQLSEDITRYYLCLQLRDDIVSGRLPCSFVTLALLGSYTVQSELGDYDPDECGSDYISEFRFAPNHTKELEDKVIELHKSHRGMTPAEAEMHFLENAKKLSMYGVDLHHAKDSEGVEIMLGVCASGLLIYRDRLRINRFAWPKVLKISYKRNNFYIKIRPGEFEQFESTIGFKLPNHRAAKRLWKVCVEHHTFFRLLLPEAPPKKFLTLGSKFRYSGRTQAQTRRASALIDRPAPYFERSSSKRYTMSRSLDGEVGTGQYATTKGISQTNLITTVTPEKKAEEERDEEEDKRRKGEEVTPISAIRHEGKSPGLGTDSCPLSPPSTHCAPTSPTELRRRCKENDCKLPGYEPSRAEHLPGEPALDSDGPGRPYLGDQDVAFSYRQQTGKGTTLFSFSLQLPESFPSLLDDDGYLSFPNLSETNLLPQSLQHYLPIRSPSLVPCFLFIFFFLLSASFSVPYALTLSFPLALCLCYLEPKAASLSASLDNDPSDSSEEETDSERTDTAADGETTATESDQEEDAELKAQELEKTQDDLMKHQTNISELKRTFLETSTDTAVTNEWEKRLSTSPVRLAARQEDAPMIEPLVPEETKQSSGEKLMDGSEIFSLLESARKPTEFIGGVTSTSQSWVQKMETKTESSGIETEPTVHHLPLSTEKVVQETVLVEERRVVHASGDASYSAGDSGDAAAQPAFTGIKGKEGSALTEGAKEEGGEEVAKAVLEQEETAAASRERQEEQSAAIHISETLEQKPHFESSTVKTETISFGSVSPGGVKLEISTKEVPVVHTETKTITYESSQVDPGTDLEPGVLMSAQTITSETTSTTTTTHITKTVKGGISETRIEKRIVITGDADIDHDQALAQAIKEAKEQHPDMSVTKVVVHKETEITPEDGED
UniProt P13674, residues 18-534: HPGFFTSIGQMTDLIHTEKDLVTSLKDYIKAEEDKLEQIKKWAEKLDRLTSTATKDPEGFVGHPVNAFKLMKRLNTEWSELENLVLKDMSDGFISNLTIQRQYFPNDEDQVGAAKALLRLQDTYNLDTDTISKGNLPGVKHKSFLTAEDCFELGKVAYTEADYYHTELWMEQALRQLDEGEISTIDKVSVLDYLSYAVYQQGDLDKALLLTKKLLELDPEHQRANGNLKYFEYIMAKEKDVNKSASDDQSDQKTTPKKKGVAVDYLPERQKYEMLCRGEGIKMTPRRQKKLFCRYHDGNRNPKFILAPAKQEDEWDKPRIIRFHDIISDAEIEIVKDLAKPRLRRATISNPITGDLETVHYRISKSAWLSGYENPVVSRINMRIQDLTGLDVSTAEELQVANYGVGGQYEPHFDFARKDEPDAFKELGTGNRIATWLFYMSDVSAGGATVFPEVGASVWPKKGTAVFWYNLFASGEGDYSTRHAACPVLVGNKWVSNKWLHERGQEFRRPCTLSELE
UniProt P11021, residues 19-654: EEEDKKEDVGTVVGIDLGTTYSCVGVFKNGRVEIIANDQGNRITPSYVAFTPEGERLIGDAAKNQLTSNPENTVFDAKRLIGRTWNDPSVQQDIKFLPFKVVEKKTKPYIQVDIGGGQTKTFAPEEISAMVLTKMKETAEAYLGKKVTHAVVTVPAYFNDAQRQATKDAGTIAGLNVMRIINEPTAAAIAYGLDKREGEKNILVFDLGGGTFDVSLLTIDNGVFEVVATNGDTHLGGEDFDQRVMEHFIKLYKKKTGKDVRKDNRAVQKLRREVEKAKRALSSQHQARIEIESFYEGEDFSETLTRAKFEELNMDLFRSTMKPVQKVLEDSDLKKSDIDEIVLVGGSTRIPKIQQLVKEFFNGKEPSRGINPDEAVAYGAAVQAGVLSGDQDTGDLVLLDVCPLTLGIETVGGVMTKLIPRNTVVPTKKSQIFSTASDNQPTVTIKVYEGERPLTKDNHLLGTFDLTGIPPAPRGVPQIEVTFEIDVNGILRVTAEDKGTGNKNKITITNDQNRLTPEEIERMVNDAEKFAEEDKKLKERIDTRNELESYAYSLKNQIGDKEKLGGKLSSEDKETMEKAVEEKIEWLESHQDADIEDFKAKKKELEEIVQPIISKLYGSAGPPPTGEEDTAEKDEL

Target: differentially expressed in adenocarcinoma of the lung-1 (DAL-1), endogenous (human (endogenous in lung cancer cells)) (UniProt Q9Y2J2)
Experiment: co-IP; endogenous co-immunoprecipitation in lung cancer cells (cell line not stated) with DAL-1, control IgG beside it; Western blot

| binding | Substance |
| --- | --- |
| no binding | P4HA1 (from UniProt P13674 18-534) |
| binds | Heat shock protein A5 (HSPA5) (from UniProt P11021 19-654) |
